From PMC9597257

Sequences of proteins named here, by UniProt entry; tags and fusion partners are left off. A change or cut given only in a name is not applied to a line headed by its entry.
UniProt A8E4Q6: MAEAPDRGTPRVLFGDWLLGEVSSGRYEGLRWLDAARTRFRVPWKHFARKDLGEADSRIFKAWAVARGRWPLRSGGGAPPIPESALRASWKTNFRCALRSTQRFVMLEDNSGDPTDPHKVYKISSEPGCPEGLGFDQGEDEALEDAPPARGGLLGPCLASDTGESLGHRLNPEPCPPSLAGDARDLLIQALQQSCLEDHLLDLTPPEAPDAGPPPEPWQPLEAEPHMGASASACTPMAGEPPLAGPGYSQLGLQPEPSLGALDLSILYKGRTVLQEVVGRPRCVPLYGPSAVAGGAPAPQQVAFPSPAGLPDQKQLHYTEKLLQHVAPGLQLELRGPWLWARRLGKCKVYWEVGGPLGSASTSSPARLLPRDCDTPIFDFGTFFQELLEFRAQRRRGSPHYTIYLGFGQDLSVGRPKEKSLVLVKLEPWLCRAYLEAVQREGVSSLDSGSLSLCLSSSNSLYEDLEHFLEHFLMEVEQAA

What follows are substances tested against T1, cyclic guanosine monophosphate-adenosine monophosphate synthase (cGAS) (Bos taurus (endogenous in bovine bladder tissue)) (UniProt E1BGN7) (assay: co-IP; 1 mg total protein extract of bovine bladder samples (RIPA buffer), anti-cGAS antibody, 1 h at 4°C, Protein A/G-Plus Agarose overnight at 4°C, four washes in lysis buffer, western blot).
T1 sequence: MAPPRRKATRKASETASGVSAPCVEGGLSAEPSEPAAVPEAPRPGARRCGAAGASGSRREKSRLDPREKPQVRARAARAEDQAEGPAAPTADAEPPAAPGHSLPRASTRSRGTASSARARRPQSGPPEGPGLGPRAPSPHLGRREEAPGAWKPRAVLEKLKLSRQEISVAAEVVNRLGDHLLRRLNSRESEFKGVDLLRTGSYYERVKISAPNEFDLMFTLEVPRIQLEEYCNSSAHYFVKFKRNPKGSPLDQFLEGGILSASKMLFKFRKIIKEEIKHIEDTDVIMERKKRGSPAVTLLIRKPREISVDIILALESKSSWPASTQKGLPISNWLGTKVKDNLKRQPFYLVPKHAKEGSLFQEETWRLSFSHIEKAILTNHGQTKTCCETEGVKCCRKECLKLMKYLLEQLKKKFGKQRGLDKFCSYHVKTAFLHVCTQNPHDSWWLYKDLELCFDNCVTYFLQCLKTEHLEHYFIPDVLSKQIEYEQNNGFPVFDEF
For “bovine papillomavirus (BPV) E5 oncoprotein”, the binding was “no binding”.

What follows are substances tested against T2, stimulator of interferon genes (STING) (Bos taurus (endogenous in bovine bladder tissue)) (UniProt Q2KI99) (assay: co-IP; 1 mg total protein extract of bovine bladder samples (RIPA buffer), anti-STING antibody, 1 h at 4°C, Protein A/G-Plus Agarose overnight at 4°C, four washes in lysis buffer, western blot).
T2 sequence: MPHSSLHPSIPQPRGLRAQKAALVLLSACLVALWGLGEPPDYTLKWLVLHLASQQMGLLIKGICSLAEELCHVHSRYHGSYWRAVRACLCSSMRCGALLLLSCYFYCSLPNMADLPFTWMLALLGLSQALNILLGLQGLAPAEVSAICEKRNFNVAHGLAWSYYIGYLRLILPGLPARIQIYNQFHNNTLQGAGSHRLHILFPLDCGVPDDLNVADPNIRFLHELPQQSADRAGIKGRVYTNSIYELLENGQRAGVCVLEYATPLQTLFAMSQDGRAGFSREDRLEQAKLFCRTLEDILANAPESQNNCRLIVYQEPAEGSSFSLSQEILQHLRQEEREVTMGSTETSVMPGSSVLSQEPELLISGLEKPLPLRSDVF
“bovine papillomavirus (BPV) E5 oncoprotein” was tested, and the binding was “binds”.
For TANK-binding kinase 1 (TBK1), the binding was “binds”.
For IRF7 (from UniProt A8E4Q6), the binding was “binds”.
With MEKK3 the binding was “binds”.
In the case of ELKS, the binding is reported as “binds”.

These are yes or no findings as the source states them, for the method shown. Binding seen in cells or lysates may run through a third protein. For part of these data: Binding calls can cover weak binding; strength is not graded here.
